Assay results: paper PMC11742833
These are yes or no findings as the source states them, for the method shown. Binding seen in cells or lysates may run through a third protein. Some results given as binding are weak or reduced against the parent protein; the word gives no strength.

Biological target: T1, STING (mouse (endogenous in BMDMs of C57BL/6 mice)) (UniProt Q3TBT3)
T1 sequence: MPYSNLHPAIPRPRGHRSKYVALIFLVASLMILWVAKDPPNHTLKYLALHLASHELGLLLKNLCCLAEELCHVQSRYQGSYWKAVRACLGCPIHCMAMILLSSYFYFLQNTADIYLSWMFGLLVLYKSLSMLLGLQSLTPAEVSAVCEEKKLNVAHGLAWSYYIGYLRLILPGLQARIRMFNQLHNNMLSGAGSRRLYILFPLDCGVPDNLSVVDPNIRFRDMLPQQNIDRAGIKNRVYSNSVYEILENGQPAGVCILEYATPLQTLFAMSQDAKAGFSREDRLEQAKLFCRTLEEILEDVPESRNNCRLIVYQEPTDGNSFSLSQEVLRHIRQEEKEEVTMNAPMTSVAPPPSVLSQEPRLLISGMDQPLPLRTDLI
Experiment: co-IP; BMDM lysate (700 ug) immunoprecipitated with anti-STING antibody (5 ug) on rProtein A/G magnetic beads, 4°C, 16 h; blots with anti-ULK1 and anti-STING

binding: binds
B1: ULK1 (protein, UniProt O70405 1-1051)
chain: MEPGRGGVETVGKFEFSRKDLIGHGAFAVVFKGRHREKHDLEVAVKCINKKNLAKSQTLLGKEIKILKELKHENIVALYDFQEMANSVYLVMEYCNGGDLADYLHTMRTLSEDTVRLFLQQIAGAMRLLHSKGIIHRDLKPQNILLSNPGGRRANPSNIRVKIADFGFARYLQSNMMAATLCGSPMYMAPEVIMSQHYDGKADLWSIGTIVYQCLTGKAPFQASSPQDLRLFYEKNKTLVPAIPRETSAPLRQLLLALLQRNHKDRMDFDEFFHHPFLDASTPIKKSPPVPVPSYPSSGSGSSSSSSSASHLASPPSLGEMPQLQKTLTSPADAAGFLQGSRDSGGSSKDSCDTDDFVMVPAQFPGDLVAEAASAKPPPDSLLCSGSSLVASAGLESHGRTPSPSPTCSSSPSPSGRPGPFSSNRYGASVPIPVPTQVHNYQRIEQNLQSPTQQQTARSSAIRRSGSTTPLGFGRASPSPPSHTDGAMLARKLSLGGGRPYTPSPQVGTIPERPSWSRVPSPQGADVRVGRSPRPGSSVPEHSPRTTGLGCRLHSAPNLSDFHVVRPKLPKPPTDPLGATFSPPQTSAPQPCPGLQSCRPLRGSPKLPDFLQRSPLPPILGSPTKAGPSFDFPKTPSSQNLLTLLARQGVVMTPPRNRTLPDLSEASPFHGQQLGSGLRPAEDTRGPFGRSFSTSRITDLLLKAAFGTQASDSGSTDSLQEKPMEIAPSAGFGGTLHPGARGGGASSPAPVVFTVGSPPSGATPPQSTRTRMFSVGSSSSLGSTGSSSARHLVPGACGEAPELSAPGHCCSLADPLAANLEGAVTFEAPDLPEETLMEQEHTETLHSLRFTLAFAQQVLEIAALKGSASEAAGGPEYQLQESVVADQISQLSREWGFAEQLVLYLKVAELLSSGLQTAIDQIRAGKLCLSSTVKQVVRRLNELYKASVVSCQGLSLRLQRFFLDKQRLLDGIHGVTAERLILSHAVQMVQSAALDEMFQHREGCVPRYHKALLLLEGLQHTLTDQADIENIAKCKLCIERRLSALLSGVYA
